{"sequences": {"note": "Protein sequences, listed by entry. Tags and fused reporters are not part of them. Lines headed by an entry give the natural chain unless they say otherwise; changes in a name come on top.", "UniProt P18054": "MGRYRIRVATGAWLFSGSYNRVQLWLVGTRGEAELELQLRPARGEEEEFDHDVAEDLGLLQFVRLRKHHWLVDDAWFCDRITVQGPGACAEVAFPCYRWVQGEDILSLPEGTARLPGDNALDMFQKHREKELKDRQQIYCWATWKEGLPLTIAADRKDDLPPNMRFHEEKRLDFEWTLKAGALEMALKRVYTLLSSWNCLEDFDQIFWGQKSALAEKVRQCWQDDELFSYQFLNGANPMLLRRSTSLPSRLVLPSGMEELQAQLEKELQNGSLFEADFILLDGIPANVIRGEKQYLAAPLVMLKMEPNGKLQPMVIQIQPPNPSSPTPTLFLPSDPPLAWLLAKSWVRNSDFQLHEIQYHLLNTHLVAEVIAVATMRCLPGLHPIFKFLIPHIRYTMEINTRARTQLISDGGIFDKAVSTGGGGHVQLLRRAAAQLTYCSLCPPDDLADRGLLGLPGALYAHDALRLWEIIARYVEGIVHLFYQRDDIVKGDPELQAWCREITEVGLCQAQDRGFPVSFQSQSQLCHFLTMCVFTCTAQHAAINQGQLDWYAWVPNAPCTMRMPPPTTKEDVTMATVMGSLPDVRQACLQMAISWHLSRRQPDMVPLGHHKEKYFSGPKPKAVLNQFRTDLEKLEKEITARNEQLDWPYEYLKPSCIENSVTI"}, "source": "PubChem BioAssay AID1671190", "about": "(National Center for Advancing Translational Sciences (NCATS), 2021)", "note": "The campaign covered roughly 580,000 compounds. About 6,100 (1.1%) were called active. The shares of active, inactive and inconclusive entries below differ from those in the screen. Calls come from the whole dose curve; as a rule, active = well fitted inhibition curve with a large enough effect; inconclusive = small, poorly fitted or top-dose-only effect, or another doubt; inactive = no such curve, though single readings can be large or run the other way. Potencies of inconclusive entries are doubtful fits and often do not repeat. Potency is the fitted concentration of half-maximal effect.", "data": [{"molecular_target": "Polyunsaturated fatty acid lipoxygenase ALOX12 (Homo sapiens) (UniProt P18054)", "assay": "Primary qHTS assay for inhibitors of human arachidonate 12S-lipoxygenase (ALOX12): Round 2", "settings": "purified 12hLO, xylenol orange hydroperoxide absorbance; series mostly up to 108 µM", "method_in_brief": "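Hydroperoxide product was detected by ferrous iron/xylenol orange as the 573 to 405 nm absorbance ratio. Arachidonic acid at 40 uM (final) was turned over for 30 min at room temperature by 150 nM human 12hLO, pH 7.0 Hepes buffer, after 15 min compound preincubation.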", "values": [{"smiles": "COc1ccc(CN2C(=O)C(CC(=O)NC(c3ccccc3)c3ccccc3)CC(C(=O)N(C(C)C)C(C)C)=C2C)cc1", "note": "(centres undefined)", "Potency": "inconclusive: 89.1 µM [inhibitor, single point]"}, {"smiles": "COc1ccc(C(=O)NCCn2cc(SC(C)c3ccccc3)c3ccccc32)cc1OC", "note": "(centres undefined)", "Potency": "inactive"}, {"smiles": "Cc1ccc(-c2csc(N3CCC(C(N)=O)(N4CCCCC4)CC3)n2)cc1", "Potency": "inconclusive: 141 µM [inhibitor, single point]"}, {"smiles": "COc1ccc(CN/C(C)=C(/C#N)C(N)=O)cc1OC", "Potency": "inactive"}, {"smiles": "CCCN1CCc2nc(N)c(C#N)c(-c3cc(OC)c(OC)c(OC)c3)c2C1", "Potency": "inconclusive: 17.8 µM [inhibitor, partial curve, poor fit]"}, {"smiles": "O=C(NC(=S)N1CCN(Cc2ccccc2)CC1)c1ccco1", "Potency": "inactive"}, {"smiles": "CCN1CCC(N(Cc2ccc3c(c2)OCO3)C(=O)Nc2ccc(C)c(C)c2)CC1", "Potency": "inconclusive: 20 µM [inhibitor, full curve, poor fit]"}, {"smiles": "COc1cc(CCC(=O)Nc2ccc3oc(-c4ccc(Cl)cc4)cc(=O)c3c2)on1", "Potency": "inconclusive: 100 µM [inhibitor, single point]"}, {"smiles": "COc1ccc(CCNC(=O)Nc2cccc(CN3CCOC3=O)c2)cc1", "Potency": "inconclusive: 44.7 µM [inhibitor, partial curve, poor fit]"}, {"smiles": "CC(C(=O)N1CCNC1=O)N(C)Cc1ccccc1Br", "note": "(centres undefined)", "Potency": "inactive"}, {"smiles": "CCNc1cc(C)ccc1C", "Potency": "inconclusive: 0.891 µM [inhibitor, full curve]"}, {"smiles": "CCn1cc(CN2CC[C@H]3C(=O)NCCCCCCN(Cc4ccncc4)[C@@H]3C2)cn1", "Potency": "inactive"}, {"smiles": "Cc1cc(=O)[nH]c(N/N=C/C=C/c2ccccc2)n1", "Potency": "inactive"}, {"smiles": "CCc1ncncc1C(=O)O", "Potency": "inconclusive: 39.8 µM [inhibitor, single point]"}, {"smiles": "Cc1nn(C)c(C)c1CNC(=O)C1CCc2sc(C(=O)N3CCOCC3)cc2C1", "note": "(centres undefined)", "Potency": "inactive"}, {"smiles": "COc1ccc(NC(=O)N(C)C[C@H]2Oc3ccc(NC(=O)Nc4ccc5c(c4)OCO5)cc3C(=O)N([C@H](C)CO)C[C@@H]2C)cc1", "Potency": "inconclusive: 79.4 µM [inhibitor, partial curve, poor fit]"}, {"smiles": "C[C@@H]1CC=CC=CC=CC=C[C@@H](O[C@@H]2O[C@H](C)[C@@H](O)[C@H](N)[C@H]2O)C[C@@H]2O[C@](O)(C[C@@H](O)C[C@@H]3O[C@@H]3C=CC(=O)O1)C[C@H](O)[C@@H]2C(=O)O", "Potency": "inconclusive: 24.3 µM [inhibitor, partial curve, poor fit]"}, {"smiles": "Cc1cccc(NC(=O)CSc2nc3c(sc4ccccc43)c(=O)n2CCCC(=O)NC2CCCC2)c1", "Potency": "inconclusive: 100 µM [inhibitor, partial curve, poor fit]"}, {"smiles": "Cc1ccc(/C=C(/C#N)C(=O)c2ccccc2)o1", "Potency": "inconclusive: 44.7 µM [inhibitor, partial curve, poor fit]"}, {"smiles": "CCCCCc1ccc(-c2cn(CC3CCCCC3)nn2)cc1", "Potency": "inactive"}, {"smiles": "O=C(O)CCn1cc(/C=C2\\NC(=S)N(c3ccccc3)C2=O)c(-c2ccc(Br)cc2)n1", "Potency": "inconclusive: 89.1 µM [inhibitor, partial curve, poor fit]"}, {"smiles": "CCC1(C(=O)O)CCCN(Cc2ccccc2)C1", "note": "(centres undefined)", "Potency": "inactive"}, {"smiles": "CN(C)c1nc(N)c(C#N)c(C#N)c1C#N", "Potency": "inactive"}, {"smiles": "CC1C/C(=N\\NC(=O)c2ccc(NS(=O)(=O)c3ccc(Br)cc3)cc2)CC(C)(C)C1", "note": "(centres undefined)", "Potency": "inconclusive: 50.1 µM [inhibitor, partial curve, poor fit]"}, {"smiles": "O=C(CN1C(=O)C2CCCCC2C1=O)OCn1nnc2ccccc2c1=O", "note": "(centres undefined)", "Potency": "inactive"}, {"smiles": "Cc1ccc(NNS(=O)(=O)c2ccc(C)cc2)cc1", "Potency": "active: 2.82 µM"}, {"smiles": "C[C@@]12C(=O)N(Cc3ccc(F)cc3)CC(=O)N1[C@H]1c3cc(Cl)ccc3OC[C@@H]1[C@@H]2c1ccccc1", "Potency": "inconclusive: 100 µM [inhibitor, partial curve, poor fit]"}, {"smiles": "O=C1[C@H](Cc2ccc(O)cc2)N2C(=O)CCN(C(=O)NCc3ccccc3)[C@H]2CN1Cc1cccc2ccccc12", "Potency": "inconclusive: 54.4 µM [inhibitor, single point]"}, {"smiles": "CC1=C(C(=O)OCc2ccccc2)C(c2ccc(-c3ccccc3)cc2)NC(=O)N1CCCC(=O)O", "note": "(centres undefined)", "Potency": "inconclusive: 79.4 µM [inhibitor, single point]"}, {"smiles": "COc1cnc(-c2cccc(C(F)(F)F)c2)c(NC(=O)c2cc3ccccc3s2)n1", "Potency": "inconclusive: 44.7 µM [inhibitor, single point]"}, {"smiles": "O=C(CN1CCN(S(=O)(=O)c2cccc(Cl)c2)CC1)N1CCCCC1", "Potency": "inactive"}, {"smiles": "CCNc1ncc2nc(-c3cn(C)c4ccccc34)c(=O)n(Cc3cccc(OC)c3)c2n1", "Potency": "inactive"}, {"smiles": "COC(=O)c1c(NC(=S)NN2CCN(C)CC2)sc2c1CCC(C)C2", "note": "(centres undefined)", "Potency": "inactive"}, {"smiles": "CN(C)CCNC(=O)C1CCCN(c2nc(Cl)nc3nc[nH]c23)C1", "note": "(centres undefined)", "Potency": "inactive"}, {"smiles": "CCOC(=O)c1sc2nc(SCC(=O)N(CC)CC)n(CCCN3CCCC3=O)c(=O)c2c1C", "Potency": "inactive"}, {"smiles": "CCCCN(C(=O)c1cnccn1)c1c(N)n(CCC)c(=O)[nH]c1=O", "Potency": "inconclusive: 35.5 µM [inhibitor, partial curve]"}, {"smiles": "COc1ccc(-c2nc3cnc(Nc4cccc(OC)c4)nc3n(C[C@H]3CCCO3)c2=O)cc1", "Potency": "inconclusive: 28.2 µM [inhibitor, single point]"}, {"smiles": "Cc1ccc(C(C(=O)NC2CCCC2)N(C(=O)CCC(=O)Nc2cc(C)on2)c2ccccc2)cc1", "note": "(centres undefined)", "Potency": "inactive"}, {"smiles": "Cc1nc(SCc2nc3ccc(C(F)(F)F)cc3[nH]2)c2oc3ccccc3c2n1", "Potency": "inconclusive: 89.1 µM [inhibitor, single point]"}, {"smiles": "COc1ccc(Cn2c(C3CCN(C(=O)C(C)c4ccccc4)CC3)n[nH]c2=O)cc1", "note": "(centres undefined)", "Potency": "inconclusive: 15.8 µM [inhibitor, full curve]"}, {"smiles": "CS(=O)(=O)Nc1cccc(C2=NN(C(=O)CCC(=O)O)C(c3cccs3)C2)c1", "note": "(centres undefined)", "Potency": "inactive"}, {"smiles": "Cc1cccc(NC(=O)C2CCCN(S(=O)(=O)c3ccc(Br)s3)C2)c1", "note": "(centres undefined)", "Potency": "inconclusive: 3.55 µM [inhibitor, full curve, poor fit]"}, {"smiles": "COc1ccc(-c2n[nH]c3c2CC(=O)N(CCOc2ccccc2)C3)cn1", "Potency": "inactive"}, {"smiles": "Cc1ccc(C(=O)N(Cc2ccco2)C2CC2)cc1F", "Potency": "inactive"}, {"smiles": "CO[C@H]1[C@H](NC(=O)CC(C)C)c2ccccc2C12CCNCC2", "Potency": "inconclusive: 35.5 µM [inhibitor, partial curve, poor fit]"}, {"smiles": "CCOC(=O)CC1(C)N(S(=O)(=O)c2ccc(C)cc2)c2ccccc2N1S(=O)(=O)c1ccc(C)cc1", "Potency": "inactive"}, {"smiles": "Cc1ccc(NC(=O)CSc2nc(NS(=O)(=O)c3ccc(C)cc3)cc(=O)[nH]2)cc1", "Potency": "inconclusive: 50.1 µM [inhibitor, partial curve, poor fit]"}, {"smiles": "O=C1CC(C(=O)N2CCCc3ccccc32)CN1c1ccc(F)cc1", "note": "(centres undefined)", "Potency": "inconclusive: 2.82 µM [inhibitor, full curve, poor fit]"}, {"smiles": "CC1(C)CC(=O)C(C=Nc2ccc(C(=O)c3ccccc3)cc2N=CC2=C(O)CC(C)(C)CC2=O)=C(O)C1", "Potency": "inconclusive: 35.5 µM [inhibitor, partial curve, poor fit]"}, {"smiles": "Cn1c(SCC(=O)NCc2ccccc2)nnc1-c1ccc(NC(=O)CCc2ccccc2)cc1", "Potency": "inconclusive: 44.7 µM [inhibitor, partial curve]"}, {"smiles": "O=C1CCN(S(=O)(=O)c2ccccc2)CCCN(Cc2cn[nH]c2-c2ccc(F)cc2)CCN1", "Potency": "inactive"}, {"smiles": "O=C(Nc1cc(Cl)ccc1O)c1cc(-c2ccco2)on1", "Potency": "inconclusive: 39.8 µM [inhibitor, partial curve, poor fit]"}, {"smiles": "O=C(O)c1ccc(CSc2nnc(-c3ccco3)o2)cc1", "Potency": "inactive"}, {"smiles": "CN(CCCOc1ccccc1F)Cc1ccccc1", "Potency": "inconclusive: 0.355 µM [inhibitor, full curve, poor fit]"}, {"smiles": "COc1ccc(-c2ccc([C@H]3[C@@H]4C=CCC[C@@]4(C)C(=O)N3Cc3ccccc3)c(F)c2)cc1OC", "Potency": "inactive"}, {"smiles": "Cn1c(=O)c(C(=O)Nc2ccc(Cl)c(C(F)(F)F)c2)nc2ccccc21", "Potency": "inactive"}, {"smiles": "O=C(NCCc1ccccc1)NC(C(=O)N1CCc2ccccc21)c1ccccc1", "note": "(centres undefined)", "Potency": "inconclusive: 31.6 µM [inhibitor, single point]"}, {"smiles": "Clc1ccc(-c2noc(CSc3nnc(Cc4cccs4)n3-c3ccccc3)n2)cc1", "Potency": "inactive"}, {"smiles": "O=C(CCCC(=O)N/N=C\\c1ccccn1)N/N=C\\c1ccccn1", "Potency": "inactive"}, {"smiles": "Oc1ccc(C2Nc3cccc4cccc(c34)N2)c(O)c1", "Potency": "inactive"}, {"smiles": "COc1ccc(/C=C/C(=O)Nc2ccc(C(C)=O)cc2)cc1S(=O)(=O)N1CCOCC1", "Potency": "inactive"}, {"smiles": "Cc1ccc(C(=O)N/N=C/c2cc(Br)ccc2O)cn1", "Potency": "inconclusive: 0.355 µM [inhibitor, full curve, poor fit]"}, {"smiles": "COc1cccc(C(=O)N2CCN(Cc3cc(Br)ccc3OC)CC2)c1", "Potency": "inconclusive: 0.447 µM [inhibitor, full curve, poor fit]"}, {"smiles": "COc1ccc(NC(=O)Cn2nnc3sc4c(c3c2=O)CCCC4)cc1", "Potency": "inactive"}, {"smiles": "O=[N+]([O-])c1ccc(C(=S)N2CCN(c3ccc(F)cc3)CC2)cc1", "Potency": "active: 50.1 µM"}, {"smiles": "CCOC(=O)C(CC(C)C)NC(C)=O", "note": "(centres undefined)", "Potency": "inconclusive: 112 µM [inhibitor, single point]"}, {"smiles": "CCC1CCc2c(sc(NC(=O)C(CC)CC)c2C#N)C1", "note": "(centres undefined)", "Potency": "inconclusive: 28.2 µM [inhibitor, partial curve, poor fit]"}, {"smiles": "CCOCCCNc1nc2c(c(=O)[nH]c(=O)n2C)n1Cc1ccccc1Cl", "Potency": "inactive"}, {"smiles": "Cc1occc1-c1nnc(SCC(=O)N2CCOCC2)n1CC(C)C", "Potency": "inactive"}]}]}
